Laboratory results reported in PubChem BioAssay AID220 (DTP/NCI, 2004).
The list is a part of this screen's results and no random one: it is rich in T/C values a quarter to a half above the control, in often repeated tests (any T/C) and in doses without a T/C. Other doses and runs of a compound stand elsewhere. T/C: endpoint of the treated group in % of that of the vehicle group. Schedules are NCI's codes, taken here to give the interval after Q, in days (D) or hours (H), and the number of doses after X. Some T/C values carry the count of animals alive at the toxicity check (mostly the fifth day); without a count, all were alive then. Some doses were run more than once; the values are given in rising order. Some entries give survivors of the animals treated and no T/C: the source files T/C as zero there, which appears to mark a toxic dose or a test without result, not a measured value. Survivors were counted at the toxicity check, usually on the fifth day, unless a day is given; later deaths do not show.

System: CD8F1 mice, subcutaneous mammary adenocarcinoma, T/C%
Test: NCI In Vivo Anticancer Drug Screen. Data for tumor model Mammary Adenocarcinoma CD8F1 (subcutaneous) in CD8F1
Conditions: higher T/C = larger tumour
In short: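 Mice carrying transplanted tumors received test compound, and survival or tumor size was recorded. Each value is the treated-group measurement divided by the corresponding measurement in vehicle-dosed controls.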

[1] = T/C endpoint: median tumor weight (est.), dose: 100.0 mg/kg/injection, schedule: Q07DX005 (ip), vehicle: Klucel (hydroxypropylcellulose) (HPC), evaluated on day 30

Q: With O=C1N(Cl)C(=O)C(c2ccc(Cl)cc2)(c2ccc(Cl)cc2)N1Cl as the compound, how does the survivor count (T/C endpoint: median tumor weight change, dose: 400.0 mg/kg/injection, schedule: Q01DX001 (ip), vehicle: saline with Tween-80) read?
A: 1 of 10 on day 35

Q: What about the survivor count (T/C endpoint: median tumor weight change, dose: 800.0 mg/kg/injection, schedule: Q01DX001 (ip), vehicle: saline with Tween-80) of the same compound?
A: 0 of 9 on day 35

Q: CC(=O)C1(O)Cc2c(O)c3c(c(O)c2C(OC2CC(N)C(O)C(C)O2)C1)C(=O)c1ccccc1C3=O (stereo not drawn) was tested. Which survivor count (T/C endpoint: median tumor weight (est.), dose: 0.8 mg/kg/injection, schedule: Q07DX005 (ip), vehicle: saline) did it give?
A: 0 of 10 on day 30

Q: What about the survivor count (T/C endpoint: median tumor weight (est.), dose: 1.6 mg/kg/injection, schedule: Q07DX005 (ip), vehicle: saline) of the same compound?
A: 0 of 10 on day 30

Q: How did the T/C (T/C endpoint: median tumor weight (est.), dose: 3.12 mg/kg/injection, schedule: Q07DX005 (ip), vehicle: Klucel (hydroxypropylcellulose) (HPC), evaluated on day 32) turn out when CN(C)c1ccc2c(N(C)C)cc(N(C)C)nc2c1 was run?
A: 126 % of control

Q: What about the T/C (T/C endpoint: median tumor weight (est.), dose: 6.25 mg/kg/injection, schedule: Q07DX005 (ip), vehicle: Klucel (hydroxypropylcellulose) (HPC), evaluated on day 32) of the same compound?
A: 144 % of control [8 of 10 alive]

Q: What does the source list for CC[C@H]1CN2CCc3cc(OC)c(OC)cc3[C@@H]2C[C@@H]1C[C@@H]1c2cc(OC)c(OC)cc2CCN1CCN(CCCl)CCCl?
A: T/C (T/C endpoint: mean tumor weight, dose: 2.5 mg/kg/injection, schedule: Q07DX006 (ip), vehicle: Klucel (hydroxypropylcellulose) (HPC), evaluated on day 43): 136 % of control; T/C (T/C endpoint: mean tumor weight, dose: 20.0 mg/kg/injection, schedule: Q07DX005 (ip), vehicle: Klucel (hydroxypropylcellulose) (HPC), evaluated on day 31): 140 % of control [9 of 10 alive]

Q: O=S(=O)(SC(S(=O)(=O)c1ccccc1)S(=O)(=O)c1ccccc1)c1ccccc1 was tested. Which T/C [1] did it give?
A: 125 % of control

Q: What about the survivor count (T/C endpoint: median tumor weight (est.), dose: 800.0 mg/kg/injection, schedule: Q07DX005 (ip), vehicle: Klucel (hydroxypropylcellulose) (HPC)) of the same compound?
A: 6 of 10 on day 30

Q: How did the T/C (T/C endpoint: median tumor weight (est.), dose: 12.5 mg/kg/injection, schedule: Q07DX005 (ip), vehicle: suspension in saline, evaluated on day 30) turn out when O=CC(S)CO (stereo not drawn) was run?
A: 147 % of control [9 of 10 alive]

Q: Which survivor count (T/C endpoint: median tumor weight change, dose: 1000.0 mg/kg/injection, schedule: Q01DX001 (ip), vehicle: Klucel (hydroxypropylcellulose) (HPC)) does the source give for CC1CCC(n2cnc3c(Cl)ncnc32)O1 (stereo not drawn) here?
A: 0 of 10 on day 27 and 1 of 10 on day 26

Q: What about the survivor count (T/C endpoint: median tumor weight change, dose: 2000.0 mg/kg/injection, schedule: Q01DX001 (ip), vehicle: Klucel (hydroxypropylcellulose) (HPC)) of the same compound?
A: 0 of 10 on day 26 and 0 of 10 on day 27

Q: How did the survivor count (T/C endpoint: median tumor weight (est.), dose: 6.25 mg/kg/injection, schedule: Q07DX005 (ip), vehicle: Klucel (hydroxypropylcellulose) (HPC)) turn out when O=C(C#Cc1ccccc1)c1ccccc1 was run?
A: 5 of 10 on day 30

Q: And the survivor count (T/C endpoint: median tumor weight (est.), dose: 12.5 mg/kg/injection, schedule: Q07DX005 (ip), vehicle: Klucel (hydroxypropylcellulose) (HPC))?
A: 5 of 10 on day 30

Q: What about the survivor count (T/C endpoint: median tumor weight (est.), dose: 25.0 mg/kg/injection, schedule: Q07DX005 (ip), vehicle: Klucel (hydroxypropylcellulose) (HPC)) of the same compound?
A: 1 of 10 on day 30

Q: What about the survivor count (T/C endpoint: median tumor weight (est.), dose: 50.0 mg/kg/injection, schedule: Q07DX005 (ip), vehicle: Klucel (hydroxypropylcellulose) (HPC)) of the same compound?
A: 0 of 10 on day 30

Q: And the survivor count (T/C endpoint: median tumor weight (est.), dose: 100.0 mg/kg/injection, schedule: Q07DX005 (ip), vehicle: Klucel (hydroxypropylcellulose) (HPC))?
A: 0 of 10 on day 30

Q: For CC(=Nc1ccccc1)C1=C(O)C(Cc2ccccc2)NC1=O (stereo not drawn), which T/C (T/C endpoint: median tumor weight (est.), dose: 50.0 mg/kg/injection, schedule: Q07DX005 (ip), vehicle: saline with Tween-80, evaluated on day 30) is on record?
A: 130 % of control

Q: What does the source list for Nc1nc2c(C(=O)N3CCCC3)nnn2c2ccccc12?
A: survivor count (T/C endpoint: median tumor weight change, dose: 250.0 mg/kg/injection, schedule: Q01DX001 (ip), vehicle: saline with Tween-80): 0 of 10 on day 31; survivor count (T/C endpoint: median tumor weight change, dose: 500.0 mg/kg/injection, schedule: Q01DX001 (ip), vehicle: saline with Tween-80): 0 of 10 on day 31; survivor count (T/C endpoint: median tumor weight change, dose: 1000.0 mg/kg/injection, schedule: Q01DX001 (ip), vehicle: saline with Tween-80): 0 of 10 on day 31

Q: How did the T/C (T/C endpoint: mean tumor weight, dose: 12.5 mg/kg/injection, schedule: Q07DX005 (ip), vehicle: saline with Tween-80, evaluated on day 35) turn out when C=CS(=O)(=O)c1ccccc1 was run?
A: 132 % of control

Q: What does the source list for CC1OC1C(=O)C1(O)C(C)C(O)C23OC2(C(O)c2c(O)cccc2C3=O)C1O (stereo not drawn)?
A: T/C (T/C endpoint: median tumor weight change, dose: 5.0 mg/kg/injection, schedule: Q01DX001 (ip), vehicle: Klucel (hydroxypropylcellulose) (HPC), evaluated on day 26): 125 % of control; survivor count (T/C endpoint: median tumor weight change, dose: 80.0 mg/kg/injection, schedule: Q01DX001 (ip), vehicle: Klucel (hydroxypropylcellulose) (HPC)): 0 of 10 on day 26, 6 of 10 on day 26, 6 of 10 on day 33

Q: How did the T/C (T/C endpoint: median tumor weight (est.), dose: 50.0 mg/kg/injection, schedule: Q07DX005 (ip), vehicle: Klucel (hydroxypropylcellulose) (HPC), evaluated on day 30) turn out when C[C@]12CC[C@@H]3c4ccc(O)cc4CC[C@H]3[C@@H]1CC[C@@H]2O was run?
A: 6 [9 of 10 alive on day 30], 46, 65 [9 of 10 alive], 111 % of control

Q: And the T/C [1]?
A: 14 [9 of 10 alive on day 30], 41, 45 [7 of 10 alive], 136 % of control

Q: And the T/C (T/C endpoint: median tumor weight (est.), dose: 200.0 mg/kg/injection, schedule: Q07DX005 (ip), vehicle: Klucel (hydroxypropylcellulose) (HPC), evaluated on day 30)?
A: 7 [9 of 10 alive on day 30], 36, 42 [7 of 10 alive], 136 % of control [9 of 10 alive on day 30]
